Strings that start with PEPTIDE1 are HELM notation: dots part the residues, brackets hold end groups and non-standard residues.
Test: general procedure: Fmoc solid-phase peptide synthesis; Fmoc-[D-Arg(Pbf)]6-Rink amide resin (0.18 mmol/g); Fmoc-Rink Amide MBHA resin (0.61 mmol/g) for 11a
Conditions: whole synthesis, 254 nm, scale of the general procedure 3.3…14 µmol

## PEPTIDE1{[NDBF-COCH2CO].[dR].[dR].[dR].[dR].[dR].[dR].[am]}$$$$V2.0
  final HPLC purity: 96.5%
